Experimental data as given in paper doi:10.1101/508887.
Results are given in words; binding and its absence hold for the method and conditions named. In cells and extracts the contact can be indirect. Some entries that bind do so weakly or less than the wild type. For some assays here: Sequences can lack the tags named with a protein.

Chains of the proteins cited; added tags and fusions are not shown.
UniProt O60333: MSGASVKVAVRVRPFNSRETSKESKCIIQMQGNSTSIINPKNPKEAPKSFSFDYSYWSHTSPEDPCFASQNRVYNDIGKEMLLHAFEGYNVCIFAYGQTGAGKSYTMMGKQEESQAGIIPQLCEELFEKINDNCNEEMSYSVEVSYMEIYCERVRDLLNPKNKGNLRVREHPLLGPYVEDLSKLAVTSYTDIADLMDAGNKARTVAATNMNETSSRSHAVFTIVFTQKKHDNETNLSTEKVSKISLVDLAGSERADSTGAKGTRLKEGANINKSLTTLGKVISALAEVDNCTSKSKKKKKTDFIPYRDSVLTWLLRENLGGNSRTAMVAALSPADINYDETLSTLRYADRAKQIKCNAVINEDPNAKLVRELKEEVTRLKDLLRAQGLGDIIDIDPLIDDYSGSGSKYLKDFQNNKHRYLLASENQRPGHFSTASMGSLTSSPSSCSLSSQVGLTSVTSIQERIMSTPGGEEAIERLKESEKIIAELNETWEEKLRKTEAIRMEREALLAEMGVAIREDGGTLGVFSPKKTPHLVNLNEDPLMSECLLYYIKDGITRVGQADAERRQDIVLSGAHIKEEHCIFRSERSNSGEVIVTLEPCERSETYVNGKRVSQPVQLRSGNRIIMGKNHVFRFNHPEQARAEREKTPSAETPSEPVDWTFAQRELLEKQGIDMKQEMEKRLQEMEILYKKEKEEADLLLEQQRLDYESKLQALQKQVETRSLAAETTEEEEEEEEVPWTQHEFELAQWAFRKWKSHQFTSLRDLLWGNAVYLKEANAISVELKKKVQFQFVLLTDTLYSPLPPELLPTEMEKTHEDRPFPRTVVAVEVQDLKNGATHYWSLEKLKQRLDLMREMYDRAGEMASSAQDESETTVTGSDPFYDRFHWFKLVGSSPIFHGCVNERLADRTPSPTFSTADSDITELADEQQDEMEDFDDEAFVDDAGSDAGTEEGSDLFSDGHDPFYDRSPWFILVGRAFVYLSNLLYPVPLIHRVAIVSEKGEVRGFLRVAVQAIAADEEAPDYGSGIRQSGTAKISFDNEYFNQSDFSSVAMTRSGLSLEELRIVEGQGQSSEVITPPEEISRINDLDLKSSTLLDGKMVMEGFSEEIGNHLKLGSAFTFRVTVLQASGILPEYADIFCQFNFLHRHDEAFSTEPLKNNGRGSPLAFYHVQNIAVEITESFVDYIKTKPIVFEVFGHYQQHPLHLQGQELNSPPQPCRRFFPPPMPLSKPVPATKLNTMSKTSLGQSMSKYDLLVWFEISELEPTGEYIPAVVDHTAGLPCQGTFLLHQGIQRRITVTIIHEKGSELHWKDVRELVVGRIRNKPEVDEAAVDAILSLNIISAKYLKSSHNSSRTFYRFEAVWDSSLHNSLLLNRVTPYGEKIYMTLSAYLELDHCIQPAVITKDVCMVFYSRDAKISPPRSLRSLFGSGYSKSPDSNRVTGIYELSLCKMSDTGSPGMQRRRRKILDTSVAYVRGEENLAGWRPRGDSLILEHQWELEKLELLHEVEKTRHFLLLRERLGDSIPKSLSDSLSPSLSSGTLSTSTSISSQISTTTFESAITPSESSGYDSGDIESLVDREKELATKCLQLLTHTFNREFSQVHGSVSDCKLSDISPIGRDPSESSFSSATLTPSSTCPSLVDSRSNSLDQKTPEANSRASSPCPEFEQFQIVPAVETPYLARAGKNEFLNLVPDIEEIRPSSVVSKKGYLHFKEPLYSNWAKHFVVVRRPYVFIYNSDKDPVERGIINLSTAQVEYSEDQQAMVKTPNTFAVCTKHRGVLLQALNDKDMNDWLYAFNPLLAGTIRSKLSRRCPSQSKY
UniProt Q12840: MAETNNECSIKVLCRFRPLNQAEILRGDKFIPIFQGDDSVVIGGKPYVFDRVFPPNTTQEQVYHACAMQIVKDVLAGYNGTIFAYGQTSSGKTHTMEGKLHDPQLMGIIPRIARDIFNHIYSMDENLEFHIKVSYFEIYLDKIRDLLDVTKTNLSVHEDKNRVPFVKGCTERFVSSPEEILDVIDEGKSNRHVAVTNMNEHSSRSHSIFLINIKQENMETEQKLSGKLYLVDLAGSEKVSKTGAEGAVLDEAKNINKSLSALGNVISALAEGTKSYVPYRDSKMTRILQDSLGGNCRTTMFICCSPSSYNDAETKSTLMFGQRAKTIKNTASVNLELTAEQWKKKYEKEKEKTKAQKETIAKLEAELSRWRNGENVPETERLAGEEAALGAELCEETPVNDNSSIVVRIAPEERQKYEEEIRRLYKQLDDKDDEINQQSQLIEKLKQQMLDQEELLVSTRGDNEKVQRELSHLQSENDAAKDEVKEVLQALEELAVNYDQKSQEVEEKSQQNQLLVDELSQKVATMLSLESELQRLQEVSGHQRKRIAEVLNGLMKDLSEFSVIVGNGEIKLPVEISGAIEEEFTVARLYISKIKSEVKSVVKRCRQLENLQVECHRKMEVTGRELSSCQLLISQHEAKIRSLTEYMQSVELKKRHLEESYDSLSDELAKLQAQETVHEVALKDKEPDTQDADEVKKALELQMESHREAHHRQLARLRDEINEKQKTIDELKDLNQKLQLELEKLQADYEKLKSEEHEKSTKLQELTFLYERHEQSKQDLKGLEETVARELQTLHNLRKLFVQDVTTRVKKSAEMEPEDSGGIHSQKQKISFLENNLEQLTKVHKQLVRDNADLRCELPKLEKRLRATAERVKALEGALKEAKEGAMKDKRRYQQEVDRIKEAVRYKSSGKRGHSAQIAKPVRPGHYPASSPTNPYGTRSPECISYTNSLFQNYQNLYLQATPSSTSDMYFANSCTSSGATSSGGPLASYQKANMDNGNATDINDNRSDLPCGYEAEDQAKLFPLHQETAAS
UniProt O60282: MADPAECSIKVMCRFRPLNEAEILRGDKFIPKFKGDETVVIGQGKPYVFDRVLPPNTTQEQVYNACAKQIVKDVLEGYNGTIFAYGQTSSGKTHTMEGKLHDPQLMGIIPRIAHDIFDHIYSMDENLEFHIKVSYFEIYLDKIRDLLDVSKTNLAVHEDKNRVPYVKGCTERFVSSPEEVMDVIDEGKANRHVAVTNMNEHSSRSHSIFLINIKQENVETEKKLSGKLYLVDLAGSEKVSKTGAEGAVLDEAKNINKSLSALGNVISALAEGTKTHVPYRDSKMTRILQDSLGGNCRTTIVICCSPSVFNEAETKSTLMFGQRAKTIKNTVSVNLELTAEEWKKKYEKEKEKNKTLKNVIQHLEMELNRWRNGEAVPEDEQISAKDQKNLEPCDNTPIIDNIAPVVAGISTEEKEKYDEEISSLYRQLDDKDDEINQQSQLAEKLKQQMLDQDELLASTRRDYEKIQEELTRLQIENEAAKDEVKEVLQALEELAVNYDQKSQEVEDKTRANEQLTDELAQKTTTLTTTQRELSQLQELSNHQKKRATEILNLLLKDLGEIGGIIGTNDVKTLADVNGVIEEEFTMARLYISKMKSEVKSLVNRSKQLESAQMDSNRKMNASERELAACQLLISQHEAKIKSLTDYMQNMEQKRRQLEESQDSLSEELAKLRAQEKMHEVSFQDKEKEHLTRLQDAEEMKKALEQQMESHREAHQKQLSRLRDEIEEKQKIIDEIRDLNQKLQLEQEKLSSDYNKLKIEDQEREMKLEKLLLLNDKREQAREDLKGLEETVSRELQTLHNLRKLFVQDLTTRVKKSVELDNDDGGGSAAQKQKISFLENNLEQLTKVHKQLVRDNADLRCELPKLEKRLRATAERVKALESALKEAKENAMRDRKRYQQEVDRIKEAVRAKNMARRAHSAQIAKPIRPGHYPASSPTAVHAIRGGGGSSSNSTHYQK
UniProt Q12756: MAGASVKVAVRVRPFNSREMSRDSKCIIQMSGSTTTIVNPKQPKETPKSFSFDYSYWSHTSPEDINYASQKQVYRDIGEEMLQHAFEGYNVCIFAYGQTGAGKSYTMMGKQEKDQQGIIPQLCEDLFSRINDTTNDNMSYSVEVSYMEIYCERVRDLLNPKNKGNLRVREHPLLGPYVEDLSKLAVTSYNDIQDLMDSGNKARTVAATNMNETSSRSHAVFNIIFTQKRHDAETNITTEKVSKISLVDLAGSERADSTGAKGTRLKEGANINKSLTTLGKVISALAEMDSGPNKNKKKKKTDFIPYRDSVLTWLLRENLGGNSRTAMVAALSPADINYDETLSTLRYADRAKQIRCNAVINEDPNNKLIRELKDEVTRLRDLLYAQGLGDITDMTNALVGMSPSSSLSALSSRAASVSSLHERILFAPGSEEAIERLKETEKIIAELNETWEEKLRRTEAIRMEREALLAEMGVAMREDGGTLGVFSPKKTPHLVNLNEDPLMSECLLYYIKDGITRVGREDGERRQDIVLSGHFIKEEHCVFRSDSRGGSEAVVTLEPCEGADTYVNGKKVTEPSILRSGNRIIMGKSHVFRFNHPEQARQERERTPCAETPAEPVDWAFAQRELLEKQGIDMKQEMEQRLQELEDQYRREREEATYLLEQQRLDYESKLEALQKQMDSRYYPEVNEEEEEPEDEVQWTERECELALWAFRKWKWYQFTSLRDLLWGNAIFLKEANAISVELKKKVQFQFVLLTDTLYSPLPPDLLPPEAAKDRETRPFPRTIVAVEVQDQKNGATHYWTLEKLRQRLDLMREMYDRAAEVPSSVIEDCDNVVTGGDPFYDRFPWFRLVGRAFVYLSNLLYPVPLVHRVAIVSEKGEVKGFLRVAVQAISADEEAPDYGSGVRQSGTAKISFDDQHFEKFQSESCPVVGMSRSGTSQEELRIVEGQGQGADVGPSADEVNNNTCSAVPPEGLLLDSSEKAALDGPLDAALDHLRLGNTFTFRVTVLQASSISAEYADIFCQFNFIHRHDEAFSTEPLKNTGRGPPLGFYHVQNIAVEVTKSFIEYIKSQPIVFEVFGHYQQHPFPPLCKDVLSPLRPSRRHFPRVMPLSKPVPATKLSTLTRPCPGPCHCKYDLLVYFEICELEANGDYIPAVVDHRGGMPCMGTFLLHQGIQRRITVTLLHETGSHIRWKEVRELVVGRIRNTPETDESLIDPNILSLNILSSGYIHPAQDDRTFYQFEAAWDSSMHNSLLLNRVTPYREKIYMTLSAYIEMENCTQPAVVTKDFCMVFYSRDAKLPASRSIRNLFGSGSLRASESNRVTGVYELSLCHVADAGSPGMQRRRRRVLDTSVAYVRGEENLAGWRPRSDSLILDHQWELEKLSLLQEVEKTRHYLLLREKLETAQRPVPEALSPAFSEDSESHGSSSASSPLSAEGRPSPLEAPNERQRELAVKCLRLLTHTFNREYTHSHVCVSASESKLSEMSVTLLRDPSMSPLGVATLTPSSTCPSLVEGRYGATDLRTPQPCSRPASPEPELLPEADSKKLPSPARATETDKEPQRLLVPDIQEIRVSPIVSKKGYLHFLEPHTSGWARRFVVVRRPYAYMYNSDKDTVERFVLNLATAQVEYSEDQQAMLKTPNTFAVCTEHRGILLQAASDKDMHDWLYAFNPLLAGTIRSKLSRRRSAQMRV

Columns and labels:
Assay in all cases: co-IP
[1] = target: KIF1B-BioID-3XFLAG (human) (UniProt O60333)
[2] = target: KIF5A-BioID-3XFLAG (human) (UniProt Q12840)
[3] = target: KIF5C-BioID-3XFLAG (human) (UniProt O60282)
[4] = target: KIF1C^Δ794-807-SNAPf-3XFLAG (human) (UniProt O43896)
[5] = target: T1, KIF1C-BioID-3XFLAG (human) (UniProt O43896)
T1 sequence: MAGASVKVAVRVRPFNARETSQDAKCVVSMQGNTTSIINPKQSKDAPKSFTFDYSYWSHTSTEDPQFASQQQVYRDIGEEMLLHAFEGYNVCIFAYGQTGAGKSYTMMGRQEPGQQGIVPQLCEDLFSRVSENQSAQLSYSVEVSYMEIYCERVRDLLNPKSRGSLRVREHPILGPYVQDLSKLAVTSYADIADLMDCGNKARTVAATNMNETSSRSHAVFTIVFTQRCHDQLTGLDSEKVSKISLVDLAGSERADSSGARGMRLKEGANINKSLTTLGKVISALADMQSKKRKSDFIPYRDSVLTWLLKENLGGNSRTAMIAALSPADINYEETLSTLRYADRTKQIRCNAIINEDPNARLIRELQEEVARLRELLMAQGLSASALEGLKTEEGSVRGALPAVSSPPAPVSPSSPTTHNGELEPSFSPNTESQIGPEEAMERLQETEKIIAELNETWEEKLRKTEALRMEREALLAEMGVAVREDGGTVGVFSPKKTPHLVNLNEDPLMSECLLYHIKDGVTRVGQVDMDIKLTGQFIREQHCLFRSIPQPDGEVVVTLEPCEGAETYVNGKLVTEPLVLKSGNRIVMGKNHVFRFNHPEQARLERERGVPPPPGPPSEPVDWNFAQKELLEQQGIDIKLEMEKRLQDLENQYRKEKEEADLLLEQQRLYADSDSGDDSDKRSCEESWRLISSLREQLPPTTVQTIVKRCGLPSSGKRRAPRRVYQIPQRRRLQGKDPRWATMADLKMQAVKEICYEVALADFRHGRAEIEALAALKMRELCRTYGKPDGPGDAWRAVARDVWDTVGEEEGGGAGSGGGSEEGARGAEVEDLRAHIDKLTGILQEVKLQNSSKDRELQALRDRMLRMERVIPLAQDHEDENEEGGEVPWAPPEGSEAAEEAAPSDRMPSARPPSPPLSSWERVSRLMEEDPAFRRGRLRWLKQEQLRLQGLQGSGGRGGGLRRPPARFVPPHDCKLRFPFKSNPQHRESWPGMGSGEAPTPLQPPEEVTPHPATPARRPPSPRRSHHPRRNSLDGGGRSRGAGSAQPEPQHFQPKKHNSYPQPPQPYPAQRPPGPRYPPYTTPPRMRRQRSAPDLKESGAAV

[6] = target: KIF1A-BioID-3XFLAG (human) (UniProt Q12756)
[7] = target: T2, KIF1C-SNAPf-3XFLAG, full-length KIF1C (human) (UniProt O43896)
T2 sequence (chain, TMR via the SNAP-tag (in the TIRF assays)): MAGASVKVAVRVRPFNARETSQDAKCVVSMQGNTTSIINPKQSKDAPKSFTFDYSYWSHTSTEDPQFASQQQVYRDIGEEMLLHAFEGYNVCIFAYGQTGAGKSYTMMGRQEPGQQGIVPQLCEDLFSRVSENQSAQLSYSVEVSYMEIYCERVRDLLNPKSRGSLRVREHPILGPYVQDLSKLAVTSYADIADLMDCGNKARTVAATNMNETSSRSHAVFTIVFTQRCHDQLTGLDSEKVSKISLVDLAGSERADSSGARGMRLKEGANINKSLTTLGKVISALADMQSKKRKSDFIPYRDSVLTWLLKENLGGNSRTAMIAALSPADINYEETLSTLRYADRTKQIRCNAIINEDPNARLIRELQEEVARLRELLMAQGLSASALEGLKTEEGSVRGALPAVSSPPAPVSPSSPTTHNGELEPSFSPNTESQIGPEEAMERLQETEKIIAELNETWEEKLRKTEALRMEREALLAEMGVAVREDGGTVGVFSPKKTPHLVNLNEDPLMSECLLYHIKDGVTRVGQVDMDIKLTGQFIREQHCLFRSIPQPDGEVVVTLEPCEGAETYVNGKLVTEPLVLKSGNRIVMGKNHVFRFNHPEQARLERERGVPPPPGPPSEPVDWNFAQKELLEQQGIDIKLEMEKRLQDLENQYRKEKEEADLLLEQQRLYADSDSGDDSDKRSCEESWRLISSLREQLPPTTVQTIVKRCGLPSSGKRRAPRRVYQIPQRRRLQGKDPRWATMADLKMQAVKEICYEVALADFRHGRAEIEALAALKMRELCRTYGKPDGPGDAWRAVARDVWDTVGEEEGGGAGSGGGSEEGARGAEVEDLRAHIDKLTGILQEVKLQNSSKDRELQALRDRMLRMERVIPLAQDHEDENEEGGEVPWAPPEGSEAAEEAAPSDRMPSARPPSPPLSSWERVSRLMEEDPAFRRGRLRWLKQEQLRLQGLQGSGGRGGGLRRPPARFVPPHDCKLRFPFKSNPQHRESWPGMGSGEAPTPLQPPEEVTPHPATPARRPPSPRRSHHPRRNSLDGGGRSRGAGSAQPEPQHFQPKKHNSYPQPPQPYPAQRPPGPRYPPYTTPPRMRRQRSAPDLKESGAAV

[8] = target: T3, KIF5B-BioID-3XFLAG (human), P33176; conditions: remark: other sources report otherwise
T3 chain: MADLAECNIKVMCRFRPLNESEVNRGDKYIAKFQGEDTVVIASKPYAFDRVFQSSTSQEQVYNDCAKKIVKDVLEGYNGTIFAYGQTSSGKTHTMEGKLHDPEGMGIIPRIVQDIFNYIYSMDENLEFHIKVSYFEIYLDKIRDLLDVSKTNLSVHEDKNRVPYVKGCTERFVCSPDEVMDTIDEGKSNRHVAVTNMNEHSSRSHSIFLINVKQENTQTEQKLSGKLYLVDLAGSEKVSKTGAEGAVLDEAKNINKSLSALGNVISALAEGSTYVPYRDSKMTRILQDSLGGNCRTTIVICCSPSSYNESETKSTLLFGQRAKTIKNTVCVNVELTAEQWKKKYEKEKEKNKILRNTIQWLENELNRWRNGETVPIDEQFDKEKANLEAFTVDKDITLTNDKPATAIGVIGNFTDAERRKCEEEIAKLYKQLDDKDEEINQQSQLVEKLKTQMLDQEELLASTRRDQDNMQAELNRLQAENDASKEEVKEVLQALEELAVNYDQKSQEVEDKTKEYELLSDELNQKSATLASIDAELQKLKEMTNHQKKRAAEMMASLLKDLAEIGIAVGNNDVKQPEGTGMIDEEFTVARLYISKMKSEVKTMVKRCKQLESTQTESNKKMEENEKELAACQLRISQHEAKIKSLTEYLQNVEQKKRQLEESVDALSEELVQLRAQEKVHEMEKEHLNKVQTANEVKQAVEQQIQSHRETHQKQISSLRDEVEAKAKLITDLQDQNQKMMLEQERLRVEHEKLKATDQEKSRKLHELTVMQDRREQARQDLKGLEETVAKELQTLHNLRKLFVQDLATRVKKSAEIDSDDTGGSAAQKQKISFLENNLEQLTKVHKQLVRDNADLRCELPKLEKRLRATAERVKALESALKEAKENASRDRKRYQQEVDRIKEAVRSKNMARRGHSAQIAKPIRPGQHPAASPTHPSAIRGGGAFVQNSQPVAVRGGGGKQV

B1: HOOK3 (endogenous) (protein, UniProt Q86VS8 1-718)
chain: MFSVESLERAELCESLLTWIQTFNVDAPCQTVEDLTNGVVMAQVLQKIDPAYFDENWLNRIKTEVGDNWRLKISNLKKILKGILDYNHEILGQQINDFTLPDVNLIGEHSDAAELGRMLQLILGCAVNCEQKQEYIQAIMMMEESVQHVVMTAIQELMSKESPVSAGNDAYVDLDRQLKKTTEELNEALSAKEEIAQRCHELDMQVAALQEEKSSLLAENQVLMERLNQSDSIEDPNSPAGRRHLQLQTQLEQLQEETFRLEAAKDDYRIRCEELEKEISELRQQNDELTTLADEAQSLKDEIDVLRHSSDKVSKLEGQVESYKKKLEDLGDLRRQVKLLEEKNTMYMQNTVSLEEELRKANAARSQLETYKRQVVELQNRLSEESKKADKLDFEYKRLKEKVDSLQKEKDRLRTERDSLKETIEELRCVQAQEGQLTTQGLMPLGSQESSDSLAAEIVTPEIREKLIRLQHENKMLKLNQEGSDNEKIALLQSLLDDANLRKNELETENRLVNQRLLEVQSQVEELQKSLQDQGSKAEDSVLLKKKLEEHLEKLHEANNELQKKRAIIEDLEPRFNNSSLKIEELQEALRKKEEEMKQMEERYKKYLEKAKSVIRTLDPKQNQGAAPEIQALKNQLQERDRLFHSLEKEYEKTKSQREMEEKYIVSAWYNMGMTLHKKAAEDRLASTGSGQSFLARQRQATSSRRSYPGHVQPATAR
[1]
  binding: no binding
[2]
  binding: no binding
[3]
  binding: no binding
[4]
  binding: no binding
[5]
  binding: binds
[6]
  binding: no binding
[7]
  binding: binds

B2: HOOK3 (endogenous), Q86VS8 1-718 (protein)
chain: MFSVESLERAELCESLLTWIQTFNVDAPCQTVEDLTNGVVMAQVLQKIDPAYFDENWLNRIKTEVGDNWRLKISNLKKILKGILDYNHEILGQQINDFTLPDVNLIGEHSDAAELGRMLQLILGCAVNCEQKQEYIQAIMMMEESVQHVVMTAIQELMSKESPVSAGNDAYVDLDRQLKKTTEELNEALSAKEEIAQRCHELDMQVAALQEEKSSLLAENQVLMERLNQSDSIEDPNSPAGRRHLQLQTQLEQLQEETFRLEAAKDDYRIRCEELEKEISELRQQNDELTTLADEAQSLKDEIDVLRHSSDKVSKLEGQVESYKKKLEDLGDLRRQVKLLEEKNTMYMQNTVSLEEELRKANAARSQLETYKRQVVELQNRLSEESKKADKLDFEYKRLKEKVDSLQKEKDRLRTERDSLKETIEELRCVQAQEGQLTTQGLMPLGSQESSDSLAAEIVTPEIREKLIRLQHENKMLKLNQEGSDNEKIALLQSLLDDANLRKNELETENRLVNQRLLEVQSQVEELQKSLQDQGSKAEDSVLLKKKLEEHLEKLHEANNELQKKRAIIEDLEPRFNNSSLKIEELQEALRKKEEEMKQMEERYKKYLEKAKSVIRTLDPKQNQGAAPEIQALKNQLQERDRLFHSLEKEYEKTKSQREMEEKYIVSAWYNMGMTLHKKAAEDRLASTGSGQSFLARQRQATSSRRSYPGHVQPATAR
[8]
  binding: no binding
